Reference: patent US20230129598A1, “METHODS OF TREATING ESTROGEN RECEPTOR-ASSOCIATED DISEASES” (Olema Pharmaceuticals, Inc., priority 2020, published 2023)
For at least one compound, name, drawing or mass did not settle the structure.

Tested on: ligand-independent ER mutants
Test: AP activity of ligand-independent ER mutants transiently transfected into Ishikawa cells
Type: cell-based, human
Details: absence of E2; FIGS. 12A-12D
Experimental: The present Example describes studies in which certain estrogen receptor constructs were transfected into Ishikawa cells, which are a human endometrial cancer cell line, endogenous alkaline phosphatase is assayed. 15,000 Ishikawa cells per well were plated into a 96-well plate in phenol-red media containing 5% stripped FBS. At the time of plating, cells in each well were transiently transfected with 75-100 ng of an estrogen receptor construct (or empty vector, pSG5) using Lipofectamine LTX (ThermoFisher Scientific). Approximately 4 hours later, cells were treated with indicated amount of anti-estrogen (in the absence of E2), or 500 pM E2 (FIG. 13), and media was diluted to 2.5% stripped FBS. Cells were incubated for 3 days, media removed, and plates frozen at -80° C. […] After 40-80 minutes at 40° C., absorbance was read at 405 nm.
Points represent mean AP activity normalized to vehicle, +/- s.e.m. from duplicate wells. […] Line represents the normalized AP activity of the endogenous receptor (transfected with empty vector (pSG5)).

## CC/C(=C(\c1ccc(O)cc1)c1ccc(OCCNC)cc1)c1ccccc1 [Endoxifen]
  Inhibition of activity of ligand-independent ER variants (AP activity): none of Endoxifen, RAD-1901, ARN-810 (GDC-0810) or AZD-9496 can inhibit activity of the ligand-independent ER variants
